The results in this text go back to publication PMC3448731.

These are yes or no findings as the source states them, for the method shown. Binding seen in cells or lysates may run through a third protein. A yes stands for co-enrichment or nearness to the bait. Other partners may have been found.

For this assay, the target named is T1, Aquaporin-1 purified from rat red blood cells (rat) (UniProt P29975).
T1 sequence: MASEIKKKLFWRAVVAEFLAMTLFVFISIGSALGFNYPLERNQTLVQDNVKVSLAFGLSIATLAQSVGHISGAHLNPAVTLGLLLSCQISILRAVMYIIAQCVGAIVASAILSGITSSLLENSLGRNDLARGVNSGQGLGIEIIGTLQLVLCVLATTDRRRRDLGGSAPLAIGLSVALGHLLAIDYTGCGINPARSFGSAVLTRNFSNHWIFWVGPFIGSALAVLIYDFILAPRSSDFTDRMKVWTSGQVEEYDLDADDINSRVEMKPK
Nature of the assay: SPR + affinity purification with mass spectrometry; purified rat AQP1 amine-coupled on a CM5 chip (Biacore 3000); diluted rat kidney extract injected (200 uL, 20 uL/min, HBS-EP running buffer); bound protein recovered by the RECOVERY program (eluted with 0.1% TFA) and identified by MALDI-TOF/MS (Mascot, MSDB); only the target purified.

For the substance “Myosin heavy chain, endogenous in rat kidney”, the binding result is given as “binds”.
